Patent US7803524 (dated 2010)
End groups of sequences in plain letters are not given here.

Experiment: Boc solid-phase peptide synthesis
Conditions: whole synthesis, HPLC

| Sequence | final purity (method not given) [%] | purity (crude or final not stated) [%] |
| --- | --- | --- |
| DQQLLGIWGCSGKLICTTAVPWN | 87 | – |
| NQQRLNLWGCKGKLICYTSVKWN | – | 81 |
